Data as given in PubChem BioAssay AID504793 (Drosophila RNAi Screening Center, 2011)
Aim: 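Whole-genome screen for parts of the DNA damage checkpoint at G2/M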 (primary screen). Cell system: Drosophila S2R+ cells. Reagent: long dsRNA against Drosophila genes, about 0.25 µg dsRNA per well. Duration: 4 days of dsRNA, then 4 hours of drug before read-out. Treatment: doxorubicin 0.5 µM for 4 hours to cause double-strand breaks, in cells also given a low, harmless dose of dsRNA against nbs to sensitise the assay. Measured: 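Mitotic index as the number of phospho-histone H3-positive cells in each well following doxorubicin, given as raw counts without normalisation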. Scale: mitotic cells: higher = more cells in mitosis, weaker G2 arrest. Call rule: 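Genes are called active only when high mitotic counts were reproduced with independent dsRNAs and mitosis was checked for delay without damage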. Calls: active = confirmed in follow-up tests; inactive = not confirmed.
In all, the deposit lists about 23,000 reagents; this is an unselected part of those that have a named target and a result. Over the whole deposit, 62 (0.27%) were called active. 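Calls come from follow-up tests whose scores are not deposited, so confirmed genes may have low counts here; counts are not normalised per plate.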 Raw values vary from plate to plate and are shown uncorrected. The numbers tell different reagents against one gene apart. Names joined by + are all predicted targets of the reagent.

| gene | dsRNA no. | mitotic cells, replicate 1 | mitotic cells, replicate 2 | Outcome |
| --- | --- | --- | --- | --- |
| CG17768 + LSm-4 | 1 | 7 | – | inactive |
| Nup62 | 1 | 11 | – | inactive |
| FBXO11 | 1 | 11 | – | inactive |
| mask | 1 | 25 | – | inactive |
| mask | 2 | 14 | – | inactive |
| mask | 3 | 25 | – | inactive |
| mask | 4 | 18 | – | inactive |
| CG44085 | 1 | 10 | – | inactive |
| Rrp47 | 1 | 4 | – | inactive |
| Rrp47 | 2 | 12 | – | inactive |
| CG32271 | 1 | 10 | – | inactive |
| CG32271 | 2 | 3 | – | inactive |
| CG31251 | 1 | 7 | – | inactive |
| Spn28Dc | 1 | 3 | – | inactive |
| pho | 1 | 22 | – | inactive |
| pho | 2 | 13 | – | inactive |
| CG17298 | 1 | 7 | – | inactive |
| CG17298 | 2 | 6 | – | inactive |
| CG6481 | 1 | 16 | – | inactive |
| CG9410 + CG15908 | 1 | 3 | – | inactive |
| CG9410 + CG15908 | 2 | 9 | – | inactive |
| CG9410 + CG15908 | 3 | 4 | – | inactive |
| CG11158 | 1 | 7 | – | inactive |
| CG3687 | 1 | 11 | – | inactive |
| CG3687 | 2 | 4 | – | inactive |
| hyd | 1 | 3 | – | inactive |
| hyd | 2 | – | – | inactive |
| CG10587 | 1 | 3 | – | inactive |
| CG31524 | 1 | 4 | – | inactive |
| CG31524 | 2 | 5 | – | inactive |
| trk | 1 | 1 | – | inactive |
| fw | 1 | 11 | – | inactive |
| fw | 2 | 9 | – | inactive |
| Hr83 | 1 | 2 | – | inactive |
| Hr83 | 2 | 5 | – | inactive |
| salm | 1 | 3 | – | inactive |
| salm | 2 | 4 | – | inactive |
| Tsf2 | 1 | 8 | – | inactive |
| Dlip1 | 1 | 5 | – | inactive |
| Pp1-87B | 1 | 36 | – | inactive |
| Pp1-87B | 2 | 8 | – | inactive |
| Pp1-87B | 3 | 7 | – | inactive |
| CG4239 | 1 | 7 | – | inactive |
| Dbp45A | 1 | 7 | – | inactive |
| PolG1 | 1 | 2 | – | inactive |
| PolG1 | 2 | 4 | – | inactive |
| RpL31 | 1 | 7 | – | inactive |
| RpL31 | 2 | 1 | – | inactive |
| cathD | 1 | 6 | – | inactive |
| CG17025 (retired record) | 1 | 3 | – | inactive |
| Osi14 | 1 | 13 | – | inactive |
| Osi14 | 2 | 6 | – | inactive |
| uri | 1 | 6 | – | inactive |
| uri | 2 | 9 | – | inactive |
| CG18467 | 1 | 7 | – | inactive |
| CG32365 | 1 | 5 | – | inactive |
| GstE7 | 1 | 11 | – | inactive |
| CG10674 | 1 | 7 | – | inactive |
| neur | 1 | 10 | – | inactive |
| neur | 2 | 4 | – | inactive |
| CG11357 | 1 | 3 | – | inactive |
| CG3618 | 1 | 4 | – | inactive |
| Rift | 1 | 9 | – | inactive |
| sigmar | 1 | 6 | – | inactive |
| CycK | 1 | 7 | – | inactive |
| dmrt99B | 1 | 18 | – | inactive |
| dmrt99B | 2 | 5 | – | inactive |
| ECSIT | 1 | 4 | – | inactive |
| faf | 1 | 10 | – | inactive |
| CG31326 | 1 | 1 | – | inactive |
| CG31326 | 2 | 4 | – | inactive |
| CG13707 | 1 | 5 | – | inactive |
| CG7785 | 1 | 11 | – | inactive |
| 14-3-3epsilon | 1 | 135 | – | active |
| CG9289 | 1 | 6 | – | inactive |
| CG9289 | 2 | 5 | – | inactive |
| a | 1 | 8 | – | inactive |
| a | 2 | 4 | – | inactive |
| CG13577 | 1 | 2 | – | inactive |
| CG33771 | 1 | 11 | – | inactive |
| Nufip | 1 | 7 | – | inactive |
| Nt5c | 1 | 13 | – | inactive |
| Nt5c | 2 | 2 | – | inactive |
| CG4229 | 1 | 5 | – | inactive |
| CG9743 | 1 | 6 | – | inactive |
| CG9743 | 2 | 1 | – | inactive |
| CG5860 | 1 | 4 | – | inactive |
| Cys | 1 | 4 | – | inactive |
| Cys | 2 | 7 | – | inactive |
| Srg3 | 1 | 4 | – | inactive |
| Srg3 | 2 | 5 | – | inactive |
| CG1172 | 1 | 5 | – | inactive |
| CG1172 | 2 | 2 | – | inactive |
| CG1172 | 3 | 4 | – | inactive |
| Reg-2 | 1 | 5 | – | inactive |
| Reg-2 | 2 | 5 | – | inactive |
| CG13060 | 1 | 7 | – | inactive |
| CG13060 | 2 | 4 | – | inactive |
| TwdlF | 1 | 9 | – | inactive |
| TwdlF | 2 | 12 | – | inactive |
| Pmvk | 1 | 3 | – | inactive |
| Ufd1 | 1 | 12 | – | inactive |
| CG11756 | 1 | 6 | – | inactive |
| CG11756 | 2 | 2 | – | inactive |
| CG33271 | 1 | 4 | – | inactive |
| CG14778 | 1 | 8 | – | inactive |
| CG32425 | 1 | 3 | – | inactive |
| CG2145 | 1 | 9 | – | inactive |
| CG2145 | 2 | 8 | – | inactive |
| vig | 1 | 5 | – | inactive |
| vig | 2 | 11 | – | inactive |
| CG32248 | 1 | 10 | – | inactive |
| CG32248 | 2 | 10 | – | inactive |
| Arms | 1 | 7 | 13 | inactive |
| Arms | 2 | 3 | – | inactive |
| Arms | 3 | 9 | – | inactive |
| Arms | 4 | 9 | – | inactive |
| Arms | 5 | 8 | – | inactive |
| LPCAT | 1 | 8 | – | inactive |
| LPCAT | 2 | 11 | – | inactive |
| ppk16 | 1 | 2 | – | inactive |
| CG14377 | 1 | 9 | – | inactive |
| CG14377 | 2 | 8 | – | inactive |
| CG12460 (retired record) | 1 | 8 | – | inactive |
| emc | 1 | 11 | – | inactive |
| emc | 2 | 3 | – | inactive |
| galene | 1 | 8 | – | inactive |
| galene | 2 | 6 | – | inactive |
| myo | 1 | 8 | – | inactive |
| Trmt112 | 1 | 3 | – | inactive |
| AsnRS-m | 1 | 6 | – | inactive |
| CG15019 | 1 | 6 | – | inactive |
| CG1143 | 1 | 7 | – | inactive |
| Osi4 | 1 | 4 | – | inactive |
| kl-5 (retired record) | 1 | 8 | – | inactive |
| kl-5 (retired record) | 2 | 9 | – | inactive |
| kl-5 (retired record) | 3 | 10 | – | inactive |
| kl-5 (retired record) | 4 | 8 | 10 | inactive |
| CG8159 | 1 | 4 | – | inactive |
| CG8159 | 2 | 6 | – | inactive |

19 neighbouring reagents already listed:
| gene | dsRNA no. | mitotic cells, replicate 1 | mitotic cells, replicate 2 | Outcome |
| --- | --- | --- | --- | --- |
| Nufip | 1 | 7 | – | inactive |
| Nt5c | 1 | 13 | – | inactive |
| Nt5c | 2 | 2 | – | inactive |
| CG4229 | 1 | 5 | – | inactive |
| CG9743 | 1 | 6 | – | inactive |
| CG9743 | 2 | 1 | – | inactive |
| CG5860 | 1 | 4 | – | inactive |
| Cys | 1 | 4 | – | inactive |
| Cys | 2 | 7 | – | inactive |
| Srg3 | 1 | 4 | – | inactive |
| Srg3 | 2 | 5 | – | inactive |
| CG1172 | 1 | 5 | – | inactive |
| CG1172 | 2 | 2 | – | inactive |
| CG1172 | 3 | 4 | – | inactive |
| Reg-2 | 1 | 5 | – | inactive |
| Reg-2 | 2 | 5 | – | inactive |
| CG13060 | 1 | 7 | – | inactive |
| CG13060 | 2 | 4 | – | inactive |
| TwdlF | 1 | 9 | – | inactive |
